Measured values taken from article PMC5024519.
Results are given in words; binding and its absence hold for the method and conditions named. Binding seen in cells or lysates may run through a third protein. Some results given as binding are weak or reduced against the parent protein; the word gives no strength. Tags and fused reporters may be left off the sequences shown.

Sequences of proteins named here, by UniProt entry; tags and fusion partners are left off.
UniProt G5EBZ4: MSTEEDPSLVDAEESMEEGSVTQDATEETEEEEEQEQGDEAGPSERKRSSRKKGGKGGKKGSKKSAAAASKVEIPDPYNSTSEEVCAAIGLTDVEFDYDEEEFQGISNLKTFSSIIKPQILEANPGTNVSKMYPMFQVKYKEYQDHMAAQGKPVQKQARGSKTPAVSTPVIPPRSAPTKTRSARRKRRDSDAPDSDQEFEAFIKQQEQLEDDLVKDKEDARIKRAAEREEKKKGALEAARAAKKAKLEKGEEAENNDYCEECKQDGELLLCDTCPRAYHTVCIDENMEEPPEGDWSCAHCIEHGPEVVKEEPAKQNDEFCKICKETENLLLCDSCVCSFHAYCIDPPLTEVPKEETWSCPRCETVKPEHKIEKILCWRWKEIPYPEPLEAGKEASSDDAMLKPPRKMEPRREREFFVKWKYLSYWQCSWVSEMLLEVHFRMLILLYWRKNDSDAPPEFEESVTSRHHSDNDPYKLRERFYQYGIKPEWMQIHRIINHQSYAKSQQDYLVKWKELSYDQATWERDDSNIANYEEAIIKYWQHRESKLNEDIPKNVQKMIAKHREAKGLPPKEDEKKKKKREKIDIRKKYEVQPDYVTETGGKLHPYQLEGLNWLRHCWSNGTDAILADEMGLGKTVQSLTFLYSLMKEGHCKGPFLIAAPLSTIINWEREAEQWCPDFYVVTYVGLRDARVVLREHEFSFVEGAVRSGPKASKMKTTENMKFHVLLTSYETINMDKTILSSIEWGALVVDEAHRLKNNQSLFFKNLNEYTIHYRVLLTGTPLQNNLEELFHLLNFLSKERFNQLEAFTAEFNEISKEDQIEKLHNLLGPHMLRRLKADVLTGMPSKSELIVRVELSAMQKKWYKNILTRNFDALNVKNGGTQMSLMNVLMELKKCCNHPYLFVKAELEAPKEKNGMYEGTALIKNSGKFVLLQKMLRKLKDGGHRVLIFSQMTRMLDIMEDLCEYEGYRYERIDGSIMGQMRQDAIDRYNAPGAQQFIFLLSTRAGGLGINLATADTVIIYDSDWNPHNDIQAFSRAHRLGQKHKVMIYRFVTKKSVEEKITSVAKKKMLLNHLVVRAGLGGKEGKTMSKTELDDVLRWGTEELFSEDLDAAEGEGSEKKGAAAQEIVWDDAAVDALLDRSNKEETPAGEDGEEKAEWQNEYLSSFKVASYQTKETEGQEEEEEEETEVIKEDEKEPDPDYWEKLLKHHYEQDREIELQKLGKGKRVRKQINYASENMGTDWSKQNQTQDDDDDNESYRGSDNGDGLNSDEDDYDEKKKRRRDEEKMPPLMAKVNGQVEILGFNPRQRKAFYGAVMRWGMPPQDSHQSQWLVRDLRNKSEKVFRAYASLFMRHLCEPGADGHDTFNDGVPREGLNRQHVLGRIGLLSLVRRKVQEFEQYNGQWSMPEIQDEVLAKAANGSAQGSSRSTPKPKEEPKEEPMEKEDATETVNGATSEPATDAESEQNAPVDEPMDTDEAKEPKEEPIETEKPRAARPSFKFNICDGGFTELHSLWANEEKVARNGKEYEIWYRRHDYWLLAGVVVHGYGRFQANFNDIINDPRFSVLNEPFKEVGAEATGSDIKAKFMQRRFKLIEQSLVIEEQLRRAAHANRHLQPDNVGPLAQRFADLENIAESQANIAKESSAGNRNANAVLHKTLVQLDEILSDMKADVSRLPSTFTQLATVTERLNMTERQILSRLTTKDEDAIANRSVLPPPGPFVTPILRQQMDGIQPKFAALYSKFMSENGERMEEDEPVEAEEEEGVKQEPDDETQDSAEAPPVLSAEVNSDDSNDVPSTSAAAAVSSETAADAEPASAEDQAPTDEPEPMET
UniProt Q22516: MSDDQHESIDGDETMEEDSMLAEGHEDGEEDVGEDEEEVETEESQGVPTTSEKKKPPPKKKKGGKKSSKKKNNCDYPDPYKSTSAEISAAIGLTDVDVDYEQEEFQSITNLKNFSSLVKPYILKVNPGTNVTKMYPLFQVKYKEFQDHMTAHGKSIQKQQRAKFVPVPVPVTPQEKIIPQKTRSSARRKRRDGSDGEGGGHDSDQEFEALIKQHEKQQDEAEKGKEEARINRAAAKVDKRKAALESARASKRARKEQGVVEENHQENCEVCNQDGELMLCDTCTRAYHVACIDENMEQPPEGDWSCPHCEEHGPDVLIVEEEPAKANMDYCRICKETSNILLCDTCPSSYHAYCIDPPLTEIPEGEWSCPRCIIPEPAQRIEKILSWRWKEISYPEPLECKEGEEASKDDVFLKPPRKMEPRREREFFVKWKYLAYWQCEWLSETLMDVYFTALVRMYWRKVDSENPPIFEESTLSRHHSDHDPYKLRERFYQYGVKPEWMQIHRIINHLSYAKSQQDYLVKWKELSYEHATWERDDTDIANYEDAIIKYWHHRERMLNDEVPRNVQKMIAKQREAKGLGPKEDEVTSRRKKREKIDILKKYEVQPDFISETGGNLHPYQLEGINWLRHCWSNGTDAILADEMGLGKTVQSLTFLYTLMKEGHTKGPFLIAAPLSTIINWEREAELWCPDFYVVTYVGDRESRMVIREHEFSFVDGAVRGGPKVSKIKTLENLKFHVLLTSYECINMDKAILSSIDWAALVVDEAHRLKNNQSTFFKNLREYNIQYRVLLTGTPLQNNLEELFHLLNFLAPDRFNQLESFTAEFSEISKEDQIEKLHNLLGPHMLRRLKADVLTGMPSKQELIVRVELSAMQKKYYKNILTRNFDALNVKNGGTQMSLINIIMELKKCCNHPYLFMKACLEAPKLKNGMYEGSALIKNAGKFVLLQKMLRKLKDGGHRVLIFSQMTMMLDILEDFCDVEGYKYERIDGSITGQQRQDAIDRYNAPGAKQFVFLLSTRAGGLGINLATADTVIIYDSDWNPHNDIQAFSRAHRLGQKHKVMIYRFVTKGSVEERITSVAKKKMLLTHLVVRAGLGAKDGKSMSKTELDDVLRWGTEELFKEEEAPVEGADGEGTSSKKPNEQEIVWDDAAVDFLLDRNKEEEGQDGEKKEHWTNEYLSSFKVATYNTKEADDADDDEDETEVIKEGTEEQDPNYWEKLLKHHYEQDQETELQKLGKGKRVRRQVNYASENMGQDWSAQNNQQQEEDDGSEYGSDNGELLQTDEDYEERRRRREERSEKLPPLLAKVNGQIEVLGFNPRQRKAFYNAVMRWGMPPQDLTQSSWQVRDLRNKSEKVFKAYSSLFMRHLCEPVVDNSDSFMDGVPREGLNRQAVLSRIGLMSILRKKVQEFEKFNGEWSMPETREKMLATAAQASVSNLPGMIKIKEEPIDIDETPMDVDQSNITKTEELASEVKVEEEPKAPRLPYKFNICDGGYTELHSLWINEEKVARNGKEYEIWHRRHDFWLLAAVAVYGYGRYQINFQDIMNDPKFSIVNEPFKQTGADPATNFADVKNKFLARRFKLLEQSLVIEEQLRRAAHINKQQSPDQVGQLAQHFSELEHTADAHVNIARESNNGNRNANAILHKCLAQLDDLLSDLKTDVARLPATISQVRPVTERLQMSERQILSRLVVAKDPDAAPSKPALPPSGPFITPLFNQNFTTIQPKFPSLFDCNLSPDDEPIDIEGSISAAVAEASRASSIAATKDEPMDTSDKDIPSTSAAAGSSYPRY

Experiments:
LET-418 (C. elegans) = LET-418 (C. elegans) (UniProt G5EBZ4); assay: co-IP; anti-LET-418 immunoprecipitation from C. elegans embryonic extracts, western blot for MES-2::EGFP::3xFLAG; mock: no antibody; done in wild-type and in chd-3(eh4) embryos (chd-3 depletion does not disrupt the interaction)
[1] = target: CHD-3::StrepIII::HA (C. elegans) (UniProt Q22516); assay: pull-down; Strep-tactin pull-down of CHD-3::StrepIII::HA from C. elegans embryonic extracts, western blot for both tagged proteins; embryos with or without the CHD-3 construct; mock: agarose resin only

B1: MES-2::EGFP::3xFLAG (protein, UniProt O17514 1-773)
chain: MSNSEPSTSTPSGKTKKRGKKCETSMGKSKKSKNLPRFVKIQPIFSSEKIKETVCEQGIEECKRMLKGHFNAIKDDYDIRVKDELDTDIKDWLKDASSSVNEYRRRLQENLGEGRTIAKFSFKNCEKYEENDYKVSDSTVTWIKPDRTEEGDLMKKFRAPCSRIEVGDISPPMIYWVPIEQSVATPDQLRLTHMPYFGDGIDDGNIYEHLIDMFPDGIHGFSDNWSYVNDWILYKLCRAALKDYQGSPDVFYYTLYRLWPNKSSQREFSSAFPVLCENFAEKGFDPSSLEPWKKTKIAEGAQNLRNPTCYACLAYTCAIHGFKAEIPIEFPNGEFYNAMLPLPNNPENDGKMCSGNCWKSVTMKEVSEVLVPDSEEILQKEVKIYFMKSRIAKMPIEDGALIVNIYVFNTYIPFCEFVKKYVDEDDEESKIRSCRDAYHLMMSMAENVSARRLKMGQPSNRLSIKDRVNNFRRNQLSQEKAKRKLRHDSLRIQALRDGLDAEKLIREDDMRDSQRNSEKVRMTAVTPITACRHAGPCNATAENCACRENGVCSYMCKCDINCSQRFPGCNCAAGQCYTKACQCYRANWECNPMTCNMCKCDAIDSNIIKCRNFGMTRMIQKRTYCGPSKIAGNGLFLLEPAEKDEFITEYTGERISDDEAERRGAIYDRYQCSYIFNIETGGAIDSYKIGNLARFANHDSKNPTCYARTMVVAGEHRIGFYAKRRLEISEELTFDYSYSGEHQIAFRMVQTKERSEKPSRPKSQKLSKPMTSE
LET-418 (C. elegans)
  binding: binds
[1]
  binding: binds
